# From PubChem BioAssay AID1671190 (National Center for Advancing Translational Sciences (NCATS), 2021)
# Protein sequences, listed by entry. Tags and fused reporters are not part of them. Lines headed by an entry give the natural chain unless they say otherwise; changes in a name come on top.
# UniProt P18054: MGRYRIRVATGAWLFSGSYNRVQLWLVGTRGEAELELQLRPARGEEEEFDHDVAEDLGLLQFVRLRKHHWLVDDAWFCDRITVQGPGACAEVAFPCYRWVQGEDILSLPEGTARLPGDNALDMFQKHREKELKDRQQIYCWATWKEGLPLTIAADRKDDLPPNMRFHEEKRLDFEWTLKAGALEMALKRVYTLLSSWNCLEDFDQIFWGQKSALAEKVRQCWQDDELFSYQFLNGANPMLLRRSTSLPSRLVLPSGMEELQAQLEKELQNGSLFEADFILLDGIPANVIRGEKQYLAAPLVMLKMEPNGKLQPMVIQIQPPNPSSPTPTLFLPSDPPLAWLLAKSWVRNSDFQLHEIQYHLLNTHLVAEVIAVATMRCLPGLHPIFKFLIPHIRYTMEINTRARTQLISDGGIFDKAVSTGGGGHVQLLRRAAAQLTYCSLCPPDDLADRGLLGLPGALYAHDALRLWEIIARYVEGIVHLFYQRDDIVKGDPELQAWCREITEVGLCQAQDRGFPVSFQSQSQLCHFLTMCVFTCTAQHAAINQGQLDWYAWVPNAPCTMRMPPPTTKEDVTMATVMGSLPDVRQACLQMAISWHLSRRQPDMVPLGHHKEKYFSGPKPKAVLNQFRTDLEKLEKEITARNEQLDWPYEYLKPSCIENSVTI
# Out of some 580,000 compounds screened, about 6,100 (1.1%) were called active. Inconclusive results, whose numbers are uncertain, are shown with a selection of clear calls. The call rests on the fitted dose curve; in most records, active means well fitted inhibition curve with a large enough effect; inconclusive means small, poorly fitted or top-dose-only effect, or another doubt; inactive means no such curve, though single readings can be large or run the other way. A potency beside an inconclusive call is a rough fit, not a confirmed value.
# Target: Polyunsaturated fatty acid lipoxygenase ALOX12 (Homo sapiens) (UniProt P18054)
# Assay: Primary qHTS assay for inhibitors of human arachidonate 12S-lipoxygenase (ALOX12): Round 2
# Conditions: purified 12hLO, xylenol orange hydroperoxide absorbance; series mostly up to 108 µM
# Summary of the method: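 Purified human 12hLO (150 nM final) in 25 mM Hepes, 0.01% Triton X-100, pH 7.0 was preincubated 15 min at room temperature with compound. Then 40 uM arachidonic acid was added, 30 min. Hydroperoxide was read by Fe-XO absorbance ratio 573/405 nm.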
# Potency means the concentration at half of the fitted maximal effect.
row,SMILES,Potency
1,CSc1nn(CC(=O)Nc2ccccc2F)c(N)c1S(=O)(=O)c1ccccc1,inactive
2,O=C(CSc1cc(Cl)ccc1Cl)Nc1ccc(N2CCOCC2)cc1,"inconclusive: 35.5 µM [inhibitor, partial curve, poor fit]"
3,O=[N+]([O-])C(=C1SCCS1)C(=C(Cl)Cl)N1CCCCC1,"inconclusive: 2.51 µM [inhibitor, single point]"
4,COCCCNC(=O)Cn1c(=O)n(-c2cccc(C)c2)c(=O)c2c1c1cc(C)ccc1n2C,"inconclusive: 89.1 µM [inhibitor, partial curve, poor fit]"
5,CN1CCN(c2ncc3nc(-c4ccc(Cl)cc4)c(=O)n(Cc4cccs4)c3n2)CC1,"inconclusive: 44.7 µM [inhibitor, partial curve, poor fit]"
6,COc1ccc(NC(=O)c2ccc3c(c2)N(C)C2CCCCCN2C3=O)cc1 (stereo not given),inactive
7,COC1CCCN(Cc2c(C(=O)N3CCN(C4CCCCC4)CC3)nc3ccccn23)C1 (stereo not given),"inconclusive: 35.5 µM [inhibitor, partial curve, poor fit]"
8,CCOc1cccc(C2/C(=C(/O)c3ccc4c(c3)CC(C)O4)C(=O)C(=O)N2Cc2ccncc2)c1 (stereo not given),inactive
9,Cc1ccc2nc(/C(C#N)=C/c3ccc(-c4ccc(C)c(Cl)c4)o3)[nH]c2c1,"inconclusive: 79.4 µM [inhibitor, partial curve, poor fit]"
10,Fc1cccc(/C=N/Nc2ccc3ccccc3n2)c1,inactive
11,Cc1ccc(CN2CCSc3ccc(C(=O)NCc4ccc(OC(C)C)cc4)cc32)cc1,"inconclusive: 89.1 µM [inhibitor, partial curve, poor fit]"
12,CC(=O)Nc1ccc(N=Nc2ccc(O)cc2)cc1,"inconclusive: 63.1 µM [inhibitor, partial curve, poor fit]"
13,Cc1cc(NS(=O)(=O)c2ccc(N)cc2)nc(C)n1,inactive
14,CC(=O)Nc1ccc(NC(=O)C2=COC3=NC(=O)N(Cc4ccccc4C)CCN23)cc1,"inconclusive: 100 µM [inhibitor, partial curve, poor fit]"
15,COC(=O)CCS(=O)(=O)c1ccc(C)c(C)c1,inactive
16,Cc1sc2nc(C(C)C)nc(SCC(=O)NC3CC3)c2c1C,inactive
17,COc1ccccc1-c1[nH]nc2ncc(-c3cccc(O)c3)nc12,"inconclusive: 70.8 µM [inhibitor, partial curve, poor fit]"
18,CCOC(=O)C1=C(OCc2ccc(Cl)cc2)C2C=C(C)C=CC2N=C1 (stereo not given),"inconclusive: 79.4 µM [inhibitor, single point]"
19,Cc1ccc(-c2nnc3ccc(C)cc3c2C(=O)O)cc1,"inconclusive: 50.1 µM [inhibitor, partial curve, poor fit]"
20,CCc1ccc2oc(C(=O)Nc3ccccc3OC)cc(=O)c2c1,"inconclusive: 79.4 µM [inhibitor, single point]"
21,Cc1ccc2c(C)c(C(=O)N3CCC(O)(c4ccccc4)CC3)oc2c1C,"inconclusive: 126 µM [inhibitor, single point]"
22,CCC(CNc1nc(CCN)nc2ccccc12)N(C)CC (stereo not given),inactive

row,SMILES,Potency
1,CCOC(=O)c1ccc(CNC(=O)c2cc(C(C)(C)C)oc2C)o1,"inconclusive: 44.7 µM [inhibitor, partial curve, poor fit]"
2,CCc1nc2ccccc2n2c(-c3ccc(C)cc3)c3c(=O)n(C)c(=O)n(C)c3c12,"inconclusive: 79.4 µM [inhibitor, partial curve, poor fit]"
3,CC(OC(=O)C1=Cc2ccccc2OC1)C(=O)NCC1CCCO1 (stereo not given),"inconclusive: 79.4 µM [inhibitor, partial curve, poor fit]"
4,O=C(c1ccc(F)cc1Cl)N1CCC(Cc2nc(-c3ccccc3)no2)CC1,inactive
5,Cc1cc(=O)oc2cc(OCC(=O)NCCC#N)c(Cl)cc12,"inconclusive: 11.2 µM [inhibitor, full curve, poor fit]"
6,O=C(c1cc2cc(Br)ccc2oc1=O)N1CCN(S(=O)(=O)c2ccccc2)CC1,inactive
7,NS(=O)(=O)c1ccc(NC(=S)NC(=O)C2CCCCC2)cc1,"inconclusive: 39.8 µM [inhibitor, partial curve, poor fit]"
8,CNc1ccc(OC(F)(F)F)cc1,"inconclusive: 14.1 µM [inhibitor, partial curve, poor fit]"
9,CC1CCc2sc(C(=O)OCC(=O)Nc3ccc([N+](=O)[O-])cc3C(F)(F)F)cc2C1 (stereo not given),"inconclusive: 79.4 µM [inhibitor, partial curve, poor fit]"
10,COCCNC(=O)C[C@@H]1C[C@@H](C(C)C)[C@H](CNC(=O)CCC(=O)O)C=C1C,"inconclusive: 7.94 µM [inhibitor, full curve, poor fit]"
11,Cc1ccccc1-n1c(-c2ccc(Cl)cc2)cnc1SCC(=O)NC1CCS(=O)(=O)C1 (stereo not given),"inconclusive: 100 µM [inhibitor, partial curve, poor fit]"
12,O=C(c1ccc(-c2ccccc2Cl)o1)N1CCCCCCC1,inactive
13,O=S(=O)(Oc1ccccc1C(=S)N1CCOCC1)c1ccc(Cl)cc1,"inconclusive: 100 µM [inhibitor, single point]"
14,Cc1cccc(NCc2cc(C(C)(C)C)c(O)c(C(C)(C)C)c2)c1,active: 10 µM
15,COc1ccc(C=O)c(OC)c1,inactive
16,CC(C)Cn1c2c(c(=O)[nH]c1=O)C(c1ccc(F)cc1)C1=C(COC1=O)N2 (stereo not given),"inconclusive: 56.2 µM [inhibitor, partial curve, poor fit]"
17,O=C(CN1C(=O)S/C(=C\c2cccs2)C1=O)Nc1ccc(O)cc1C(=O)O,"inconclusive: 56.2 µM [inhibitor, partial curve, poor fit]"
18,Fc1ccc(Nc2nc(SCc3ccccc3Cl)nc3ccccc23)cc1,inactive
19,Cc1cc(=O)oc2cc(OCC(=O)NC(=O)NC3CCCCC3)ccc12,inactive
20,CCCC1=C(C(=O)OCC)C(c2cccc(OC)c2)C(C#N)=C(N)O1 (stereo not given),"inconclusive: 44.7 µM [inhibitor, partial curve, poor fit]"
21,O=C(COC(=O)[C@@H]1CCCN1S(=O)(=O)c1ccccc1F)NCc1ccc2c(c1)OCO2,"inconclusive: 100 µM [inhibitor, single point]"
22,C=CCNC(=O)CCCOc1ccc(C)cc1,inactive

# In a second layout: 3 of the compounds above
row | SMILES | Potency
6 | O=C(c1cc2cc(Br)ccc2oc1=O)N1CCN(S(=O)(=O)c2ccccc2)CC1 | inactive
17 | O=C(CN1C(=O)S/C(=C\c2cccs2)C1=O)Nc1ccc(O)cc1C(=O)O | inconclusive: 56.2 µM [inhibitor, partial curve, poor fit]
20 | CCCC1=C(C(=O)OCC)C(c2cccc(OC)c2)C(C#N)=C(N)O1 (stereo not given) | inconclusive: 44.7 µM [inhibitor, partial curve, poor fit]

# Further entries follow:

row,SMILES,Potency
1,C/C(=N/NS(=O)(=O)c1ccc(C)cc1)c1c(O)c2ccccc2oc1=O,"inconclusive: 25.1 µM [inhibitor, partial curve, poor fit]"
2,COCCN1C(=O)C(=O)/C(=C(/O)c2ccc(S(=O)(=O)N3CCCCC3)cc2)C1c1ccc(OC)c(OC)c1 (stereo not given),active: 14.1 µM
3,CCOC(=O)CCC(NC(=O)c1ccc(CNc2nc3cc(C(F)(F)F)ccc3nc2C(=O)OCC)cc1)C(=O)OCC (stereo not given),"inconclusive: 10 µM [inhibitor, full curve]"
4,CCOC(=O)C1=C(C)NC(=S)NC1c1ccc(OCC(=O)N2CCCCCC2)cc1 (stereo not given),"inconclusive: 100 µM [inhibitor, partial curve, poor fit]"
5,COc1cc(=O)[nH]c(SCC(=O)Nc2ccc3ccccc3c2)n1,"inconclusive: 100 µM [inhibitor, partial curve, poor fit]"
6,O=C(c1cc2ccccc2o1)N1CCN(S(=O)(=O)c2ccc(Cl)s2)CC1,"inconclusive: 79.4 µM [inhibitor, partial curve, poor fit]"
7,Cc1ccc(NC(=O)c2ncn(CC(=O)NCc3nc4ccccc4[nH]3)n2)cc1C,"inconclusive: 44.7 µM [inhibitor, partial curve, poor fit]"
8,CSc1ccc(/C=C2\C(=N)N3N=C(CC(=O)N4CCCCC4)SC3=NC2=O)cc1,"inconclusive: 44.7 µM [inhibitor, partial curve]"
9,Cc1[nH]n(-c2ccccc2)c(=O)c1/C=N\NC(=O)C1COc2ccccc2O1 (stereo not given),"inconclusive: 35.5 µM [inhibitor, partial curve]"
10,COc1cc(OC)c2c(-c3ccccc3)cc(=O)oc2c1C(CC(=O)N1CCN(c2ccccc2)CC1)c1ccc(N(C)C)cc1 (stereo not given),"inconclusive: 8.91 µM [inhibitor, partial curve, poor fit]"
11,CC(C)c1nnc(NC(=O)c2cccc(NC(=O)C(F)(F)F)c2)s1,"inconclusive: 44.7 µM [inhibitor, partial curve, poor fit]"
12,Cc1ccnc(NC(=O)CNC(=O)c2ccccc2Br)c1,"inconclusive: 79.4 µM [inhibitor, partial curve, poor fit]"
13,Nc1c(S(=O)(=O)O)cc(Nc2ccc(Cl)cc2)c2c1C(=O)c1ccccc1C2=O,"inconclusive: 35.5 µM [inhibitor, single point]"
14,CC(C)OC(=O)CCNC(=O)c1ccc(CS(C)(=O)=O)cc1,"inconclusive: 5.62 µM [inhibitor, full curve, poor fit]"
15,CCOC(=O)N1CCC(N(CCN(C)C)C(=S)Nc2cccc(Cl)c2)CC1,inactive
16,COCCn1c(CN2CCN(c3cccc(Cl)c3)CC2)nc2c1c(=O)n(C)c(=O)n2C,inactive
17,CCc1noc(C)c1C(=O)N1CCOc2ccc(CN3CCCC(C(=O)c4cccnc4)C3)cc2C1 (stereo not given),"inconclusive: 100 µM [inhibitor, single point]"
18,CCCc1c(C(=O)OCC)[nH]c2c1C(=O)CC(c1ccc(OCC)cc1)C2 (stereo not given),inactive
19,O=S(=O)(Nc1ccc2cn[nH]c2c1)c1ccc(Cl)c(Cl)c1,inactive
20,COc1ccc(/C=C/c2nc(C#N)c(NCCCN(C)C)o2)cc1OC,inactive
21,CN(c1ccccc1)S(=O)(=O)c1cccc(C(=O)NCc2ccccc2CN2CCCC2)c1,inactive

# Part of the list above in order of heavy-atom count, falling.
row,SMILES,Potency
1,CSc1nn(CC(=O)Nc2ccccc2F)c(N)c1S(=O)(=O)c1ccccc1,inactive
18,CCCc1c(C(=O)OCC)[nH]c2c1C(=O)CC(c1ccc(OCC)cc1)C2 (stereo not given),inactive
2,O=C(CSc1cc(Cl)ccc1Cl)Nc1ccc(N2CCOCC2)cc1,"inconclusive: 35.5 µM [inhibitor, partial curve, poor fit]"
